About 3,600 (1.6%) of roughly 230,000 compounds were called active. Only results without a clear call are listed here; the source files them as inconclusive. The call rests on the fitted dose curve; in most records, active means well fitted inhibition curve with a large enough effect (not every such curve was filed as active); inconclusive means small, poorly fitted or top-dose-only effect, or another doubt; inactive means no such curve, though single readings can be large or run the other way. Some results for these compounds are left out of this collection, so the calls shown say nothing about other tests.
Molecular target: Lysine-specific demethylase 4E (Homo sapiens) (UniProt B2RXH2)
Test: qHTS Assay for Inhibitors of Human Jumonji Domain Containing 2E (JMJD2E)
Conditions: JMJD2E catalytic domain, FDH-coupled NADH fluorescence (FDH is formaldehyde dehydrogenase)
Further: nearly all actives have a fitted effect of over 50% in size.
Potency means the concentration at half of the fitted maximal effect.

Sequences of proteins named here, by UniProt entry; tags and fusion partners are left off. Residues count along the entry.
UniProt B2RXH2, 1-337 limits assumed: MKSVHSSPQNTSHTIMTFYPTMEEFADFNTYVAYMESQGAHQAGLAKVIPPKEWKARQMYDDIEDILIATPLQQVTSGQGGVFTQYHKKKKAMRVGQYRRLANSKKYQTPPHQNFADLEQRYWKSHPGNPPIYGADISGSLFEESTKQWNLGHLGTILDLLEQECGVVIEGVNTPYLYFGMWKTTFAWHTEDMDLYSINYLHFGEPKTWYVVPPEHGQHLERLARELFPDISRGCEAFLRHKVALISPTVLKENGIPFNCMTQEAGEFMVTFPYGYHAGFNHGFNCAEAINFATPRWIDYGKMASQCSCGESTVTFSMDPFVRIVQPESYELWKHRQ

Structure (SMILES) | Potency
COc1ccc(Br)c(C(=O)NCC2(N3CCCCC3)CCCCC2)c1 | inconclusive: 28.2 µM
CN(C)c1cccc(C(=O)NCC2(N(C)C)CCCCC2)c1 | inconclusive: 39.8 µM
C=CCN1CCN(CCOC(=O)C(O)(c2ccccc2)c2ccccc2)CC1 | inconclusive: 35.5 µM
CCN1CCCC(OC(=O)C2(O)c3ccccc3C=Cc3ccccc32)C1 (centres undefined) | inconclusive: 25.1 µM
